Experimental data as given in patent publication US6964763B1, “Methods and compositions for inhibiting HIV infectivity and blocking chemokine activity” (priority 1997, dated 2005).
At least one structure is not confirmed: it was looked up by name or label, or the drawing left a doubt. Where a SMILES comes first, the peptide text is derived from it.

Target: T1, gp120 (LAI isolate) (Human immunodeficiency virus type 1 group M subtype B, UniProt P03377)
T1 construct: baculovirus-expressed HIV-1 gp120 derived from LAV and MN isolates; host or cells: baculovirus expression system
Design: species or system HIV-1
Details: read-out: apparent affinity of 125I-gp120 binding to immobilized peptide, saturation isotherm

`CC(C)[C@H](NC(=O)[C@H](CO)NC(=O)[C@@H](N)CS)C(=O)N[C@H](C(=O)N[C@@H](CS)C(=O)NCC(=O)O)[C@@H](C)O` [CSVTCG, cys-ser-val-thr-cys-gly] (H-CSVTCG-OH; N-terminus and C-terminus assumed) was tested, and the Kd was 300 nM.
